Data reported in the supplement of paper PMC4683952.
This is one part of the list. Rule as the data show it: active = 2 or more and inactive = the rest. Repeats in this data set agree poorly, so a single value says little.

System: Lgr5 (MarsCy1-Lgr5-EGFP, U2OS)
Experiment: cell-surface Lgr5 expression (SCi1 fluorescence, background-subtracted) relative to WT DMSO (fold of DMSO control); higher = more Lgr5 at the plasma membrane
Settings: U2OS MarsCy1-Lgr5-EGFP stable; treatment time: overnight; library: ActiProbe-5K (TimTec); 25 µM

Compound	cell-surface Lgr5 expression
CCN1CCN(c2cc(C)nc3nncn23)CC1	inactive: 1.15
O=[N+]([O-])c1ccc(NCCNc2ccc([N+](=O)[O-])c3cccnc23)cc1	active: 4.02
NC1(Cc2ccc(Cl)cc2)CC1	inactive: 1.16
CN1CCc2[nH]c(=S)c(C#N)c(-c3ccsc3)c2C1	inactive: 0.977
Nc1c(Cl)c(Cl)nc(C(=O)O)c1Cl	inactive: 1.24
O=[N+]([O-])c1ccc(Cl)cc1N/N=C1\CN2CCC1CC2	inactive: 1.08
N#C/C=C1\CN2CCC1CC2	inactive: 1.16
CN(C)C(=S)SSC(=S)N(C)C	inactive: 0.834
C#CC1(O)CCC2C3CC=C4CC(OC(C)=O)CCC4(C)C3CCC21C (stereo not drawn)	inactive: 1.88
O=S1(=O)c2ccccc2-c2ccccc21	inactive: 1.12
Cc1nn(C)cc1CN1CCNCC1	inactive: 1.25
Cc1cc(C=O)c(C)n1C1CC1	inactive: 1.29
c1(c(/C=C(/C#N)C#N)cc(s1)CC)SCC	inactive: 1.36
N=C(Nc1ccccc1)Nc1ccccc1	inactive: 1.04
COC(=O)[C@@H]1OC(Br)[C@@H](OC(C)=O)[C@H](OC(C)=O)[C@H]1OC(C)=O (stereo partly drawn)	inactive: 1.05
Cn1c(Sc2nnc(N)[nH]2)nnc1[N+](=O)[O-]	inactive: 1.18
Cc1ccc(C2Oc3ccccc3C3CN(C)OC32[N+](=O)[O-])cc1 (stereo not drawn)	inactive: 0.946
O=[N+]([O-])c1cn(Cn2cc([N+](=O)[O-])nc2Cl)c(Cl)n1	inactive: 1.03
O=C1CCC(=O)N1C1CCCN2CCCCC12 (stereo not drawn)	inactive: 1.29
CC(=O)Nc1nonc1N	inactive: 1.03
COC(=O)c1n[nH]c([N+](=O)[O-])c1[N+](=O)[O-]	inactive: 1.38
CC(C)c1ccc(C2NCc3ccccc3-n3cccc32)cc1 (stereo not drawn)	inactive: 0.766
CC(C)C/C(=N\O)c1c[nH]c2ccccc12	inactive: 0.855
N=C(NN)c1nonc1N	inactive: 1.32
O=C(O)CCn1cnnn1	inactive: 1.15

Entries listed so far that contain a Cl atom:
Compound	cell-surface Lgr5 expression
NC1(Cc2ccc(Cl)cc2)CC1	inactive: 1.16
Nc1c(Cl)c(Cl)nc(C(=O)O)c1Cl	inactive: 1.24
O=[N+]([O-])c1ccc(Cl)cc1N/N=C1\CN2CCC1CC2	inactive: 1.08
O=[N+]([O-])c1cn(Cn2cc([N+](=O)[O-])nc2Cl)c(Cl)n1	inactive: 1.03

Continued:

Compound	cell-surface Lgr5 expression
Cc1c(C(=O)NN)nnn1-c1nonc1N	inactive: 1.15
O=[N+]([O-])c1ccc(N2CCNCC2)c2cccnc12	inactive: 1.07
Cc1n[nH]c2c1C1(CCN(C)CC1)C(C#N)=C(N)O2	inactive: 1.21
COC(=O)Cn1ncnn1	inactive: 1.09
O=[N+]([O-])c1ccc(Cl)c(Cl)c1Cl	inactive: 1.47
CC(=O)c1cc(CCl)cs1	inactive: 1.24
O=[N+]([O-])c1cc(-c2cc([N+](=O)[O-])[nH]n2)n[nH]1	inactive: 1.53
NC(=O)Cn1nc([N+](=O)[O-])nc1Br	inactive: 1.24
CCOC(=O)c1c(NC(=O)C2C(C)(C)C2(C)C)sc2c1CCC2	inactive: 1.11
c1cncc(C2Nc3cccc4cccc(c34)N2)c1	inactive: 0.954
CN1CCN(c2ccc([N+](=O)[O-])c(N3CCN(C)CC3)c2)CC1	inactive: 1.16
NCCc1csc2c1CCCC2	inactive: 1.29
COC(=O)Cn1cnc([N+](=O)[O-])n1	inactive: 1.08
c1(c(sc(c1)C)C)/C=C(/C#N)C#N	inactive: 1.2
Nc1nnnn1CC(=O)O	inactive: 1.28
O=Cc1cc(CCl)cs1	inactive: 1.21
O=[N+]([O-])c1c(Br)sc(Br)c1[N+](=O)[O-]	inactive: 1.54
Nc1nc2ccccc2c(-c2cccc3ccccc23)c1CN1CC1	inactive: 0.515
NC(=O)c1no[n+]([O-])c1C(N)=O	inactive: 1.38
CC[n+]1ccc(-c2cc[n+](CC)cc2)cc1.[Br-].[Br-]	inactive: 1.16
Nc1cc(Br)ccc1O	inactive: 0.692
CCCCCCCCC1CCNC1=O (stereo not drawn)	inactive: 1.14
c1ccc2c(c1)CCc1c-2[nH]c2ccccc12	inactive: 1.03
CCCn1nc(C)c(C=O)c1C	inactive: 1.19
c1ccc2c(c1)ccc1cccnc12	inactive: 1.1

Compound	cell-surface Lgr5 expression
C(/C#N)(C#N)=C\c1ccc(/C=C(\C#N)C#N)cc1	active: 2.39
CCCC[n+]1[cH-]/c(=N\C(=O)OC)on1	inactive: 1.18
CC(N)Cn1cnc2c(cnn2C)c1=O (stereo not drawn)	inactive: 1.15
CN1CCC(O)(c2ccco2)C(C(O)c2ccco2)C1 (stereo not drawn)	inactive: 1.21
O=[N+]([O-])c1ccc(O/N=C2\CN3CCC2CC3)cc1	inactive: 0.978
CN1[C@@H]2CC[C@H]1C[C@@H](O)C2	inactive: 0.986
CS(=O)(=O)c1nc([N+](=O)[O-])n[nH]1	inactive: 0.995
CC(=O)[C@@H]1[C@@H]2NC(=S)N[C@@]1(C)Oc1ccccc12	inactive: 0.978
CC(=O)[C@@H]1[C@@H]2NC(=O)N[C@@]1(C)Oc1ccccc12	inactive: 1.1
O=[N+]([O-])c1nnc(Br)[nH]1	inactive: 1.44
COc1cccc(N2CCNCC2)n1	inactive: 1.12
O=C1NCCCC12CCCNC2=O	inactive: 0.842
Cc1cc(C=O)c(C)n1C1CCCC1	inactive: 1.22
Nc1c([N+](=O)[O-])cc2[nH]c(=O)[nH]c2c1[N+](=O)[O-]	inactive: 1.1
c1(oc(C)cc1)/C=C(\C#N)C#N	inactive: 0.858
CCN1CCc2[nH]c(=S)c(C#N)cc2C1	inactive: 1.18
CN1CCc2[nH]c(=S)c(C#N)c(-c3cccs3)c2C1	inactive: 0.904
CC(N)Cn1nc(C(F)(F)F)cc1C1CC1 (stereo not drawn)	inactive: 1.1
Cc1c(/N=N\c2no[n+]([O-])c2C)no[n+]1[O-]	inactive: 1.45
CN1CCC(O)(c2ccco2)C(C(=O)Cc2ccco2)C1 (stereo not drawn)	inactive: 1.13
C1(N(C(=O)C(/C(N1C)=O)=C\NCc1occc1)C)=S	inactive: 1.02
COc1cc2c(cc1OC)-c1c(OC)c(OC)c(Br)c3c1C(C2)N(C)CC3 (stereo not drawn)	inactive: 0.755
NC(c1c[nH]c2ccccc12)C(F)(F)F (stereo not drawn)	inactive: 1.06
